Source: PubChem BioAssay AID240 (DTP/NCI, 2004)
The list shows only some results of the screen, not a fair sample: its compounds were picked by chemical class. Other doses and runs of a compound may be missing. T/C: endpoint of the treated group in % of that of the vehicle group. Where survival is the endpoint, this PubChem deposit counts one and a half times the control or more as active, and values a quarter to a half above the control carry no call in these data; other NCI protocols may use other cut-offs. Some T/C values are marked as having no survivor count here; that says nothing about deaths at the dose. Schedule codes are those of the source, read here as Q, the interval in days (D) or hours (H), X, the number of doses. Some entries hold several experiments; their values stand side by side, smallest first.

Test system: Lymphoma 4 ip in BDF1 mice, median survival
Assay: NCI In Vivo Anticancer Drug Screen. Data for tumor model Lymphoma 4 (intraperitoneal) in B6D2F1 (BDF1) mice
Conditions: T/C endpoint: median survival time, schedule: Q01DX010 (ip), vehicle: saline, higher T/C = longer survival
Protocol: The antitumor activity of compounds was measured in mice bearing transplantable tumors. Survival or tumor size were measured and the results are expressed as the measurement made in the treated group (T) divided by the measurement made in the vehicle treated control group (C). The tumor model used in this assay is Lymphoma 4 (intraperitoneal) in B6D2F1 (BDF1) mice

With `ClCCN(CCCl)Cc1nc2ccccc2[nH]1` the T/C (dose: 1.25 mg/kg/injection) was 106 [survivor count not shown] and 111 % of control [survivor count not shown], the T/C (dose: 2.5 mg/kg/injection) was 123 [survivor count not shown] and 127 % of control [survivor count not shown] and the T/C (dose: 5.0 mg/kg/injection) was 113 [survivor count not shown] and 153 % of control [survivor count not shown]. For the same compound, the T/C (dose: 10.0 mg/kg/injection) was 107 [survivor count not shown] and 110 % of control [survivor count not shown].
With `NC(Cc1cccc(N(CCCl)CCCl)c1)C(=O)O` (stereo not given) the T/C (dose: 0.63 mg/kg/injection) was 145 % of control [survivor count not shown], the T/C (dose: 1.25 mg/kg/injection) was 125 % of control [survivor count not shown] and the T/C (dose: 2.5 mg/kg/injection) was 93 % of control [survivor count not shown]. The T/C (dose: 313.0 micrograms/kg/injection) was 105 % of control [survivor count not shown], the T/C (dose: 625.0 micrograms/kg/injection) was 105 % of control [survivor count not shown] and the T/C (dose: 1250.0 micrograms/kg/injection) was 150 % of control [survivor count not shown]. For the same compound, the T/C (dose: 2500.0 micrograms/kg/injection) was 158 % of control [survivor count not shown].
For `NC1CCCCC1.NP(=O)(O)N(CCCl)CCCl`, the T/C (dose: 15.6 mg/kg/injection) was 146 % of control [survivor count not shown], the T/C (dose: 31.3 mg/kg/injection) was 181 % of control [survivor count not shown] and the T/C (dose: 62.5 mg/kg/injection) was 131 % of control [survivor count not shown].
`O=C(O)CN(CCCl)CCCl` was tested, and the T/C (dose: 0.63 mg/kg/injection) was 120 % of control [survivor count not shown], the T/C (dose: 1.25 mg/kg/injection) was 132 [survivor count not shown] and 133 % of control [survivor count not shown] and the T/C (dose: 2.5 mg/kg/injection) was 140 [survivor count not shown] and 153 % of control [survivor count not shown]. The T/C (dose: 5.0 mg/kg/injection) was 146 [survivor count not shown] and 160 % of control [survivor count not shown].
`ClCCNCCCl` was tested, and the T/C (dose: 9.4 mg/kg/injection) was 133 % of control [survivor count not shown], the T/C (dose: 18.8 mg/kg/injection) was 139 [survivor count not shown] and 153 % of control [survivor count not shown] and the T/C (dose: 37.5 mg/kg/injection) was 90 [survivor count not shown] and 214 % of control [survivor count not shown].
In the case of `CC(C(=O)O)N(CCCl)CCCl` (stereo not given), the T/C (dose: 0.5 mg/kg/injection) was 126 % of control [survivor count not shown], the T/C (dose: 1.0 mg/kg/injection) was 139 [survivor count not shown] and 140 % of control [survivor count not shown] and the T/C (dose: 2.0 mg/kg/injection) was 135 [survivor count not shown] and 150 % of control [survivor count not shown]. The T/C (dose: 4.0 mg/kg/injection) was 133 [survivor count not shown] and 164 % of control [survivor count not shown].
